This test deals with human GNPTAB, wild type, C-terminally Flag- or V5-tagged (human) (UniProt Q3T906). Nature of the test: co-IP.

Amino acid sequences for entries named in this document (tags omitted).
UniProt Q3T906: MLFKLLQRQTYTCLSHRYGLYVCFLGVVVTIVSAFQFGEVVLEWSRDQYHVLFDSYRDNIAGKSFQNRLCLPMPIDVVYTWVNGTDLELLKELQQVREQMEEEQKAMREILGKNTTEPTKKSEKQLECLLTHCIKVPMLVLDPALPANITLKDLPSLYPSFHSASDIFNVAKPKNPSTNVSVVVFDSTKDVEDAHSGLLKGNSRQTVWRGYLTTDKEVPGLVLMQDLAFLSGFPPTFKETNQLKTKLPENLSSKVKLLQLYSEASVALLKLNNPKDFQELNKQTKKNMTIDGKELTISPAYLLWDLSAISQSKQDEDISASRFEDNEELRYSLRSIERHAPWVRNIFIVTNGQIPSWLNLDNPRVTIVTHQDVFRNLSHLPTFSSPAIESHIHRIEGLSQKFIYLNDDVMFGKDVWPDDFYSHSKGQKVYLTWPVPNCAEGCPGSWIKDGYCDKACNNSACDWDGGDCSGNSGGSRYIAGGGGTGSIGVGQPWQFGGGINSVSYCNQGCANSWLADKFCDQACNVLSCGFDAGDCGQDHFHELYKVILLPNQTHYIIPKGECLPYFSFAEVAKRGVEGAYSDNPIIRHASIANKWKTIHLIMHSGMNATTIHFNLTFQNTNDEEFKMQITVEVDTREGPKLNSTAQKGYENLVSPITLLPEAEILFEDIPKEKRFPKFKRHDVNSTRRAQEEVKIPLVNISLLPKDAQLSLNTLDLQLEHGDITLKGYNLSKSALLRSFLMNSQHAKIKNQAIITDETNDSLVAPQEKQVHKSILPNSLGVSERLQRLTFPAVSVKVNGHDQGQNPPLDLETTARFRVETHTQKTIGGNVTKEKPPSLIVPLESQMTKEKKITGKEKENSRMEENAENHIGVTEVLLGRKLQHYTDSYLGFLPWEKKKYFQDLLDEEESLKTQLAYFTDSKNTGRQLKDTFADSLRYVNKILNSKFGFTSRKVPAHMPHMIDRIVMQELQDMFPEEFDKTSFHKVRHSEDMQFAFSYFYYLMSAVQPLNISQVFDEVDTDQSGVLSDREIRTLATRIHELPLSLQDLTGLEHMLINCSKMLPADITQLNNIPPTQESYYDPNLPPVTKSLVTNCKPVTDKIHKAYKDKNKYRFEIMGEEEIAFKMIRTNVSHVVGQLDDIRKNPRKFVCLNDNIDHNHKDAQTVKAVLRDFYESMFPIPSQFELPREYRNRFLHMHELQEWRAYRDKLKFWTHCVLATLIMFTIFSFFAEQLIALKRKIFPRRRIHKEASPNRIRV

Our source for the binding values is publication doi:10.1101/2021.03.25.436948.

These are yes or no findings as the source states them, for the method shown. In cells and extracts the contact can be indirect. Some entries that bind do so weakly or less than the wild type.

For the substance “human GNPTAB, wild type, C-terminally Flag- or V5-tagged (from UniProt Q3T906 1-1256) (enzyme)”, the binding entry is recorded as “binds”.
